Measurements from paper PMC10621131.
No constants are given. Whether binding was seen depends on the method and setting. In cells and extracts the contact can be indirect. Some binding calls cover weakened binding; strength is not graded here.

The chains behind the UniProt entries cited, without tags or fusion partners.
UniProt O88597: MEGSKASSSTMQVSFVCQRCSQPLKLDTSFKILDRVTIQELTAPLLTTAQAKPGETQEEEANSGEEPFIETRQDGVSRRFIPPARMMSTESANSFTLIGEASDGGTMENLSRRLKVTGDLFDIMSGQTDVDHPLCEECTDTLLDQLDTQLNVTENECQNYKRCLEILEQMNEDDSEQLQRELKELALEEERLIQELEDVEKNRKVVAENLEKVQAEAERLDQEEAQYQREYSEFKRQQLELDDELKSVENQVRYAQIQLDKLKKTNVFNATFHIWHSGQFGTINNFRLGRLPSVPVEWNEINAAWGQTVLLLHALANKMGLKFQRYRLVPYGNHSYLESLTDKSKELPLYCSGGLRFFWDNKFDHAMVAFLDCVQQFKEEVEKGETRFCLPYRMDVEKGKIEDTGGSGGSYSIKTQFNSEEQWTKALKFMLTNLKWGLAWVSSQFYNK

Biological target: Beclin-1 (mouse (endogenous in BMDMs)) (UniProt O88597)
Experiment: co-IP; BMDM lysates (Nonidet P40 lysis buffer with 10 mM nicotinamide and 10 uM TSA) incubated overnight at 4 °C with anti-Beclin-1 or NC IgG, Protein A/G magnetic beads 2 h, blot with anti-TRAF6; groups: blank, M1 (LPS 50 ng/mL, 24 h), M1 + si-NC, M1 + si-TRAF6

binding: binds
B1: tumor necrosis factor (TNF) receptor-associated factor 6 (TRAF6) (protein, UniProt P70196 1-530)
chain: MSLLNCENSCGSSQSSSDCCAAMAASCSAAVKDDSVSGSASTGNLSSSFMEEIQGYDVEFDPPLESKYECPICLMALREAVQTPCGHRFCKACIIKSIRDAGHKCPVDNEILLENQLFPDNFAKREILSLTVKCPNKGCLQKMELRHLEDHQVHCEFALVNCPQCQRPFQKCQVNTHIIEDCPRRQVSCVNCAVSMAYEEKEIHDQSCPLANIICEYCGTILIREQMPNHYDLDCPTAPIPCTFSVFGCHEKMQRNHLARHLQENTQLHMRLLAQAVHNVNLALRPCDAASPSRGCRPEDPNYEETIKQLESRLVRQDHQIRELTAKMETQSMYVGELKRTIRTLEDKVAEMEAQQCNGIYIWKIGNFGMHLKSQEEERPVVIHSPGFYTGRPGYKLCMRLHLQLPTAQRCANYISLFVHTMQGEYDSHLPWPFQGTIRLTILDQSEALIRQNHEEVMDAKPELLAFQRPTIPRNPKGFGYVTFMHLEALRQGTFIKDDTLLVRCEVSTRFDMGGLRKEGFQPRSTDAGV
